# Test results reported in PubChem BioAssay AID493014 (National Center for Advancing Translational Sciences (NCATS), 2011).
# About 170 (0.05%) of roughly 340,000 compounds were called active. This list was built around the results that the source calls inconclusive (neither active nor inactive); the mix of calls is not that of the screen. Calls follow the shape of the dose curve; as a rule, active = well fitted inhibition curve with a large enough effect in the signal ratio, with a control signal flat (not every such curve was filed as active); inconclusive = small, poorly fitted or top-dose-only effect, or effect the other way, or a change in a side signal; inactive = flat fitted curve, though single readings scatter; the % refers to the signal ratio. Potencies beside an inconclusive call are fits to weak or partial responses and may not hold up.
# Assay: qHTS Assay to Find Inhibitors of Chronic Active B-Cell Receptor Signaling;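 as to activity change, negative = inhibition: plate controls were basal doxycycline-induced cells for no effect and cells given 10 µM MG132 for full effect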
# Conditions: ABC-DLBCL IkBa-CBG/CBR reporter, luminescence ratio (green luciferase fused to IkBa over red control in TMD8 lymphoma cells), 4 h; activity change, negative = inhibition: at 46.1 µM (top of the series) unless noted
# Procedure, shortened: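 Cell line TMD8 (human ABC DLBCL), stably expressing tet-inducible CBG68-IkBa fusion and CBR; IMDM/0.5% FBS; cpd up to 46 uM; dox induction, 4 h, 37C/5% CO2; dual luminescence; green/red ratio; MG132 control.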
# Potency is read from the fitted curve at half-maximal effect.
Compound,"activity change, negative = inhibition",Potency
CCOC(=O)c1nn(-c2ccccc2)c(=O)cc1SC(C)CC (stereo not given),inactive: -2.02%,
O=C1C(c2ccc(F)cc2)N(CC2COc3ccccc3O2)C(=O)CN1C1CCCCC1 (stereo not given),inconclusive: 1.58%,
Nc1nc(SCc2ccc(Cl)cc2)ns1,inactive: 0.203%,
COc1ccc(OC)c(-n2c(C)cc(C=O)c2C)c1,inconclusive: 1.73%,
Cc1cc(Cn2nc(-c3ccccc3)cc2C(=O)NCC2CC2)on1,inactive: 0.523%,
CCOC(=O)C1=C(c2ccccc2)Nc2ncnn2C1c1cc(OC)ccc1OC (stereo not given),inconclusive: 3.89%,
CNc1ccc(Br)cc(C(=O)/C=C/c2cccc(OC)c2)c1=O,,"inconclusive: 4.11 µM [falling, single point]"
CC(C)C[C@H](NC(=O)c1[nH]cnc1C(=O)Nc1ccc(Cl)cc1)C(=O)OC(C)(C)C,inactive: 0.24%,
Cc1nc(N)sc1C(=O)N/N=C/c1cccnc1,,"inconclusive: 12.6 µM [falling, partial curve]"
Cc1c(/C=C/C(=O)c2ccccc2O)cnn1C,inconclusive: -7.11%,
CC(/C=N/n1c(C2CCCCC2)n[nH]c1=S)=C\c1ccccc1,,"inconclusive: 17.8 µM [rising, single point]"
O=C(N1CCOCC1)N1CCN(c2ccccc2F)CC1,,"inconclusive: 29.1 µM [falling, single point]"
Cc1ccc(NC(=O)CCN2C(=O)c3ccccc3C2=O)c(C)c1,inconclusive: 2.42%,
CCC(=O)O[C@]1(C(=O)CCl)[C@@H](C)C[C@H]2[C@@H]3CCC4=CC(=O)C=C[C@]4(C)[C@@]3(F)[C@@H](O)C[C@@]21C,inconclusive: -21%,
CC(=O)Nc1ccc(S(=O)(=O)Nc2nc(CN3CCOCC3)nc3sc4c(c23)CCCC4)cc1,inconclusive: -9.1%,
CCOC(=O)c1sc2nc(C)nc(SCC(=O)NC3CCS(=O)(=O)C3)c2c1C (stereo not given),inconclusive: 11.8%,
Cc1nn(C(C)(C)C)c(OC(=O)CC(C)C)c1S(=O)(=O)c1ccccc1,inconclusive: 1.9%,
O=[N+]([O-])c1cccc(-c2ccc(SCc3ccccn3)nn2)c1,inactive: 0.838%,
Cc1ccc(SCCSc2nc(C)cc(=O)[nH]2)cc1,inconclusive: 11.1%,
Cc1cccc(Cn2c(-c3cccc(Br)c3)nc3ccccc32)c1,,"inconclusive: 17.8 µM [rising, partial curve, poor fit]"
Cc1nn(C)c(C)c1/C=C/C(=O)c1ccc(Cl)cc1Cl,,"inconclusive: 7.94 µM [falling, partial curve, poor fit]"
CCC(=O)Nc1ccc(C(=O)COC(=O)c2sc(C)nc2C)cc1,inconclusive: -0.262%,
CC[N+](C)(C)CC/C=C1/c2ccccc2Sc2ccc(Cl)cc21,inactive: -25.7%,
O=C(NC1CCCCC1)N1CCN(Cc2ccco2)CC1,inconclusive: -28.1%,
Cc1ccc(S(=O)(=O)N/N=C/c2ccc(O)cc2O)cc1[N+](=O)[O-],,"inconclusive: 11.2 µM [falling, partial curve]"

# Structures from the list above that contain a carbonyl joined to an NH by a bond outside any ring:
Compound,"activity change, negative = inhibition",Potency
Cc1cc(Cn2nc(-c3ccccc3)cc2C(=O)NCC2CC2)on1,inactive: 0.523%,
CC(C)C[C@H](NC(=O)c1[nH]cnc1C(=O)Nc1ccc(Cl)cc1)C(=O)OC(C)(C)C,inactive: 0.24%,
Cc1nc(N)sc1C(=O)N/N=C/c1cccnc1,,"inconclusive: 12.6 µM [falling, partial curve]"
Cc1ccc(NC(=O)CCN2C(=O)c3ccccc3C2=O)c(C)c1,inconclusive: 2.42%,
CC(=O)Nc1ccc(S(=O)(=O)Nc2nc(CN3CCOCC3)nc3sc4c(c23)CCCC4)cc1,inconclusive: -9.1%,
CCOC(=O)c1sc2nc(C)nc(SCC(=O)NC3CCS(=O)(=O)C3)c2c1C (stereo not given),inconclusive: 11.8%,
CCC(=O)Nc1ccc(C(=O)COC(=O)c2sc(C)nc2C)cc1,inconclusive: -0.262%,
O=C(NC1CCCCC1)N1CCN(Cc2ccco2)CC1,inconclusive: -28.1%,

# Later entries:

Compound,"activity change, negative = inhibition",Potency
CCS(=O)(=O)c1nc(S(=O)(=O)c2ccc(C)cc2)c(NCCCn2ccnc2)s1,inconclusive: -2.77%,
CC12C(=O)N(Cc3ccco3)C(=O)C1C1c3ccccc3C2c2ccccc21 (stereo not given),inconclusive: 4.5%,
Cc1nc2sc(C(c3ccccc3)N3CC(C)OC(C)C3)c(O)n2n1 (stereo not given),inconclusive: 2.57%,
COCCCNC(=O)CSc1nc2c(sc3ccccc32)c(=O)n1CCc1ccc(OC)c(OC)c1,inactive: 1.37%,
CC1CCc2[nH]c3ccc(C(=O)N(C)CC(=O)Nc4ccccc4Cl)cc3c2C1 (stereo not given),,"inconclusive: 2.91 µM [rising, partial curve]"
Cc1noc(C)c1S(=O)(=O)N1CCCC(C(=O)c2cccc(OC(C)C)c2)C1 (stereo not given),,"inconclusive: 15.8 µM [falling, partial curve, poor fit]"
Cc1nc(NC(=O)c2ccccc2)sc1-c1csc(Nc2ccc(C(=O)O)cc2)n1,inconclusive: -10%,
O=c1oc(/C=C/c2ccccc2)nc2sc3c(c12)CCC3,,"inconclusive: 1.64 µM [falling, partial curve, poor fit]"
CCCN(C(=O)c1ccco1)c1nnc(-c2cccc(C)c2)s1,inconclusive: -10.5%,
Cn1ccnc1SCC(=O)c1ccc2ccccc2c1,,"inconclusive: 22.4 µM [falling, partial curve]"
COc1ccc(OC)c(CN2C(=O)c3ccccc3C2C(=O)NCC2CCCO2)c1 (stereo not given),inconclusive: 1.36%,
O=C(Nc1ccc(F)cc1)c1ccc2c(=O)n3c(nc2c1)CCCCC3,,"inconclusive: 20 µM [falling, partial curve, poor fit]"
COc1cccc2[nH]c(=O)c(-c3ccccc3)cc12,inconclusive: -47.7%,
COc1ccc(C)cc1N(C(=O)c1ccc(C#N)cc1)C1=NC(C)(C)CS1,inactive: 0.988%,
Cc1ccc(/C=C/C(=O)c2ccc(O)cc2)cc1,,"inconclusive: 15.8 µM [falling, partial curve]"
COc1ccccc1-c1noc(-c2cc(OC)c(OC)c(OC)c2)n1,inconclusive: 5.85%,
COCCN1C(=O)c2ccc(C(=O)O)cc2C1=O,inconclusive: 21%,
O=C(CN(C(=O)CCC(=O)Nc1ccccn1)C1CCCC1)NCc1ccc(F)cc1,inactive: -6.41%,
CC1CCCCN1C(=S)NC(=O)c1cccs1 (stereo not given),inconclusive: -2.81%,
Cc1nc(SCC(=O)Nc2ccc3c(c2)OCCO3)c2oc3ccccc3c2n1,,"inconclusive: 3.55 µM [falling, partial curve, poor fit]"
CN(C(=O)CN1C(=O)S/C(=C\c2cccc(Cl)c2)C1=O)C1CCS(=O)(=O)C1 (stereo not given),,"inconclusive: 22.4 µM [falling, partial curve]"
COC(=O)C1=CN(c2ccc(F)cc2)C=C(C(=O)OC)C1c1cccc([N+](=O)[O-])c1,inconclusive: -9.67%,
CCn1c(SCC(=O)Nc2ccc(NC(C)=O)cc2)nnc1C1CC1,inconclusive: 1.67%,
CCCCC(=O)NC(c1ccccc1OC)c1ccc2cccnc2c1O (stereo not given),inconclusive: -21.8%,
COc1ccc(-c2oc3ncn4nc(COc5ccccc5)nc4c3c2-c2ccc(OC)cc2)cc1,inactive: 6.1%,

# Rewritten with bars between the fields: entries from further up.
Compound | activity change, negative = inhibition | Potency
COCCN1C(=O)c2ccc(C(=O)O)cc2C1=O | inconclusive: 21% | 
O=C(CN(C(=O)CCC(=O)Nc1ccccn1)C1CCCC1)NCc1ccc(F)cc1 | inactive: -6.41% | 
